# Data published in patent US6586402B1, “LH-RH peptide analogues, their uses and pharmaceutical compositions containing them” (Laboratoire Theramex, priority 1997, dated 2003).
# Read-outs that look alike come from different tables or passages of the source. Part of at least one peptide drawing is inferred or uncertain, most often the ends. Square brackets hold non-standard residues; d marks the D form. Peptide text beside a SMILES is read from it. * marks the point of attachment. dPhe(4-Cl) = N[C@H](Cc1ccc(Cl)cc1)C(=O)O; d2Nal = N[C@H](Cc1ccc2ccccc2c1)C(=O)O; d(hCit) = NC(=O)NCCCC[C@@H](N)C(=O)O; Lys(iPr) = CC(C)NCCCC[C@H](N)C(=O)O; d(hPhe) = N[C@H](CCc1ccccc1)C(=O)O; tBuAla = CC(C)(C)C[C@H](N)C(=O)O; d3Pal = N[C@H](Cc1cccnc1)C(=O)O; pGlu = O=C1CC[C@@H](C(=O)O)N1; Nicotinoyl = O=C(c1cccnc1)*
# Assays:
# [1] = molecular target: T1, LH-RH receptors (Rattus norvegicus, UniProt P30969)
# T1 sequence (P30969 1-327): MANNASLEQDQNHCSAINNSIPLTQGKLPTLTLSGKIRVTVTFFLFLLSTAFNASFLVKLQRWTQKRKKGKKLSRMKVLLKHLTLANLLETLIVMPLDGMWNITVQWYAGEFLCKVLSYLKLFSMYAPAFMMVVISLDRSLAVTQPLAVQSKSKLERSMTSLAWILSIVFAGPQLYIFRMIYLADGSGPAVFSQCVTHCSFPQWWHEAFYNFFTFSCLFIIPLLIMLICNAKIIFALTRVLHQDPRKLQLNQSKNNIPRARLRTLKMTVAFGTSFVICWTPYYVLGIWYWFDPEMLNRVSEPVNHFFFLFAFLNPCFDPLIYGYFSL
# [2] = molecular target: T1, LH-RH receptors; assay: Stimulation of testosterone secretion in adult male rats after subcutaneous injection (agonist activity in vivo); set-up: exert an agonist activity upon the LH-RH receptors in vivo; from tissue; host or cells: whole animal, adult male Sprague-Dawley rats; species or system Sprague-Dawley rats
# Description: The peptides according to the general formula (IIa) exert an agonist activity upon the LH-RH receptors in vivo, resulting in the stimulation of LH secretion by the pituitary, which, in males, stimulates the secretion of testosterone by the testis.
# Two hours later, blood samples were drawn for total plasma testosterone determination by direct radioimmunoassay (Immunotech).
# At this intermediate dose of 10 ng/kg, several examples with Npg^7 or Ada^7 in place of Leu^7 according to the invention were screened for agonistic activity (Tables 2 and 3). When available from Bachem (France) or Sigma (France), the corresponding standard agonist with Leu^7 was tested for comparison.
SMILES,Number of ovulating females/total number of treated females ([1]; 0.5 μg/rat s.c.),Number of ovulating females/total number of treated females ([1]; 1 μg/rat s.c.),Number of ovulating females/total number of treated females ([1]; 0.25 μg/rat s.c.),antiovulatory activity in words ([1]; 1 μg/rat s.c.),also measured
"CC(=O)N[C@H](Cc1ccc2ccccc2c1)C(=O)N[C@H](Cc1ccc(Cl)cc1)C(=O)N[C@H](Cc1cccnc1)C(=O)N[C@@H](CO)C(=O)N[C@@H](CCCCNC(=O)c1cccnc1)C(=O)N[C@H](CCCCNC(=O)c1cccnc1)C(=O)N[C@@H](CC(C)C)C(=O)N[C@@H](CCCCNC(C)C)C(=O)N1CCC[C@H]1C(=O)N[C@H](C)C(N)=O [Antide, reference compound] (Ac-[d2Nal][dPhe(4-Cl)][d3Pal]SK(Nicotinoyl)[dK](Nicotinoyl)L[Lys(iPr)]P[dA]-NH2)",4/5,5/16,–,–,"Number of ovulating females/total number of treated females ([1]; 2.5 μg/rat s.c.): 2/6; Number of ovulating females/total number of treated females ([1]; 5 μg/rat s.c.): 0/11; Number of ovulating females/total number of treated females ([1]; 10 μg/rat s.c.): 0/8; dose relation of the inhibition of ovulation, in words ([1]; dose range studied, s.c.): dose-related inhibition of ovulation"
"CC(=O)N[C@H](Cc1ccc2ccccc2c1)C(=O)N[C@H](Cc1ccc(Cl)cc1)C(=O)N[C@H](Cc1cccnc1)C(=O)N[C@@H](CO)C(=O)N[C@@H](Cc1ccc(O)cc1)C(=O)N[C@H](CCCCNC(N)=O)C(=O)N[C@@H](CC(C)(C)C)C(=O)N[C@@H](CCCCNC(C)C)C(=O)N1CCC[C@H]1C(=O)N[C@H](C)C(N)=O [Example 18, AcD-Nal-D-pClPhe-D-Pal-Ser-Tyr-D-HCit-Npg-IprLys-Pro-D-Ala-NH2] (Ac-[d2Nal][dPhe(4-Cl)][d3Pal]SY[d(hCit)][tBuAla][Lys(iPr)]P[dA]-NH2)",–,1/5,4/5,maximal or sub-maximal activity,–
"CC(=O)N[C@H](Cc1ccc2ccccc2c1)C(=O)N[C@H](Cc1ccc(Cl)cc1)C(=O)N[C@H](Cc1cccnc1)C(=O)N[C@@H](CO)C(=O)N[C@@H](Cc1ccc(O)cc1)C(=O)N[C@H](CCCCNC(N)=O)C(=O)N[C@@H](CC(C)(C)C)C(=O)N[C@@H](CCCNC(=N)N)C(=O)N1CCC[C@H]1C(=O)N[C@H](C)C(N)=O [Example 19, AcD-Nal-D-pClPhe-D-Pal-Ser-Tyr-D-HCit-Npg-Arg-Pro-D-Ala-NH2] (Ac-[d2Nal][dPhe(4-Cl)][d3Pal]SY[d(hCit)][tBuAla]RP[dA]-NH2)",–,0/5,3/5,maximal or sub-maximal activity,–
"CC(C)(C)C[C@H](NC(=O)[C@@H](CCc1ccccc1)NC(=O)[C@H](Cc1ccc(O)cc1)NC(=O)[C@H](CO)NC(=O)[C@H](Cc1c[nH]c2ccccc12)NC(=O)[C@H](Cc1c[nH]cn1)NC(=O)[C@@H]1CCC(=O)N1)C(=O)N[C@@H](CCCNC(=N)N)C(=O)N1CCC[C@H]1C(=O)NCC(N)=O [Example 22, pGlu-His-Trp-Ser-Tyr-D-HPhe-Npg-Arg-Pro-Gly-NH2] ([pGlu]HWSY[d(hPhe)][tBuAla]RPG-NH2)",–,–,–,–,"agonistic potency in words ([2]; 10 ng/kg s.c., comment on Tables 2 and 3): range of potency similar to that of leuprorelin or tryptorelin; Total plasma testosterone ([2]; Table 3, 10 ng/kg subcutaneous in PBS, blood two hours later, male Sprague-Dawley rats, vehicle 4.3 ± 1.2): 34.8 ± 4.5 nmol/L"
"CC(=O)N[C@H](Cc1ccc2ccccc2c1)C(=O)N[C@H](Cc1ccc(Cl)cc1)C(=O)N[C@H](Cc1cccnc1)C(=O)N[C@@H](CO)C(=O)N[C@@H](CCCCNC(=O)c1cccnc1)C(=O)N[C@H](CCCCNC(=O)c1cccnc1)C(=O)N[C@@H](CC(C)(C)C)C(=O)N[C@@H](CCCCNC(C)C)C(=O)N1CCC[C@H]1C(=O)N[C@H](C)C(N)=O [Example 15, AcD-Nal-D-pClPhe-D-Pal-Ser-NicLys-D-NicLys-Npg-IprLys-Pro-D-Ala-NH2] (Ac-[d2Nal][dPhe(4-Cl)][d3Pal]SK(Nicotinoyl)[dK](Nicotinoyl)[tBuAla][Lys(iPr)]P[dA]-NH2)",0/5,1/5,4/10,–,Number of ovulating females/total number of treated females ([1]; 0.1 μg/rat s.c.): 5/5; increase in the antiovulatory potency relative to antide ([1]; replacement of Leu^7 by Npg^7): 4 fold
